Out of some 24,000 compounds screened, fewer than 10 were called active. Inconclusive results, whose numbers are uncertain, are shown with a selection of clear calls.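 The calls were made as follows: active = fluorescent ligand binding to cells raised by more than 40% of the manganese-induced maximum; inconclusive = compound's own fluorescence above 85% of the ligand control signal; inactive = the rest.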
Biological target: Integrin alpha-4 (Homo sapiens) (UniProt P13612)
Assay: enhancers of LDV-FITC binding to VLA-4 integrin, primary screen, Jurkat cells, flow cytometry (AID 528);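 as to activation: 0% = ligand binding without compound and 100% = manganese-stimulated maximal binding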
Conditions: hits give high values, screened at 10 µM (by protocol)

Chains of the proteins cited; added tags and fusions are not shown.
UniProt P13612, whole entry, looked up: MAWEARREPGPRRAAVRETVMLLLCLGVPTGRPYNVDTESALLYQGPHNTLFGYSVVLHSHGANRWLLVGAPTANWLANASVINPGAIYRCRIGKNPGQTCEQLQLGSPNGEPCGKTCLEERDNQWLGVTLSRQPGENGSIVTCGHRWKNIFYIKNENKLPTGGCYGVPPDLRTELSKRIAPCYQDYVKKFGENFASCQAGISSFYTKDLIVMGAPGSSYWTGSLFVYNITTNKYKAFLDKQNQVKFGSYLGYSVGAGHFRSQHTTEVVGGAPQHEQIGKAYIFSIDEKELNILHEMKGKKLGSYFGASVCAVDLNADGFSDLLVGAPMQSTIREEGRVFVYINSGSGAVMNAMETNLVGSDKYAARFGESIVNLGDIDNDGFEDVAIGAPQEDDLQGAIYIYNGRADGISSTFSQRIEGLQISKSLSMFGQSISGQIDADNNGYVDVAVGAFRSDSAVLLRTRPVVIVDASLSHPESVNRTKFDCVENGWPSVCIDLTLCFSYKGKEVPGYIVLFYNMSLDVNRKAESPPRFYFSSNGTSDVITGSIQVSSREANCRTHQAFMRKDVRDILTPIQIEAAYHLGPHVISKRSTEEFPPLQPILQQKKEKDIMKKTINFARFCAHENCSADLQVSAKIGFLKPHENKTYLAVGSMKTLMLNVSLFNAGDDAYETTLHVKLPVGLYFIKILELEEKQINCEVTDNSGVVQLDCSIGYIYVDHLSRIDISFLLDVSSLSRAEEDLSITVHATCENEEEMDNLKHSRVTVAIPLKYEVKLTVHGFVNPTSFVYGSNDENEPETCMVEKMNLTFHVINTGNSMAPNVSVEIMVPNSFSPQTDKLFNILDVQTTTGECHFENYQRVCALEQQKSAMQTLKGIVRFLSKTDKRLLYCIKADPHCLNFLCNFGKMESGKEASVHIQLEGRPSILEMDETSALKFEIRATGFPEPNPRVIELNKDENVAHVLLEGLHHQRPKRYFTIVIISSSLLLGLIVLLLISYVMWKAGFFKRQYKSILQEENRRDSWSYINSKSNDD

| Compound | activation |
| --- | --- |
| C=CCSC1=C(C#N)C(c2ccccc2C)CC(=O)N1 (stereo not drawn) | inconclusive |
| CCN(CC)c1ccc2cc(-c3nc4ccccc4[nH]3)c(=O)oc2c1 | inconclusive |
| CSC1=NCCN1C(=O)c1ccc(S(=O)(=O)N2CCCCC2)cc1 | inconclusive |
| Cc1ccc2c(c1)NC(=O)C(CC(=O)NCCCN1CCN(c3cc(Cl)ccc3C)CC1)O2 (stereo not drawn) | inactive: -9% |
| COC(=O)c1ccsc1NC(=O)CN1C(=O)CCC1=O | inactive: -2.5% |
| CCOC(=O)c1cccc(NC(=O)Cn2cnc3c2c(=O)n(C)c(=O)n3C)c1 | inactive: -5.5% |
| Cc1ccccc1NC(=O)CN(C)S(=O)(=O)c1cccc2cccnc12 | inconclusive |
| CN1CCN(Cc2c(O)ccc3c(=O)c(Oc4ccccc4Cl)c(C(F)(F)F)oc23)CC1 | inconclusive |
| COc1ccc2cc3cc(C(=O)NCc4ccccn4)oc3nc2c1 | inconclusive |
| O=C(c1cccc(S(=O)(=O)N2CCOCC2)c1)N1CCCC1 | inconclusive |
| CCOC(=O)C1CCN(C(=O)c2cc3cc4cc(OC)ccc4nc3o2)CC1 | inconclusive |
| O=c1cc(CO)oc(C(Nc2ccccn2)c2ccsc2)c1O (stereo not drawn) | inconclusive |
| COC(=O)c1ccc(NC(=O)CSc2nnc(Cc3cccn3C)n2-c2ccc(F)cc2)cc1 | inactive: -4% |
| FC(F)(F)c1cc(-c2ccco2)nc(NCc2cccs2)n1 | inconclusive |
| COC(=O)C1C(=O)C2=C(CC1C)NC(=O)CC2c1cccc(C)c1 (stereo not drawn) | inconclusive |
| COc1ccccc1NC(=O)c1nc[nH]c1C(=O)Nc1ccccc1OC | inactive: 14% |
| Cc1nn(-c2ccc(C(=O)O)cc2)c(=O)c2ccccc12 | inconclusive |
| Cc1ccc(-c2nc(CS(=O)CC(=O)NCCCN3CC(C)CC(C)C3)c(C)o2)cc1 (stereo not drawn) | inconclusive |
| CC(C(=O)N1c2ccc(F)cc2CCC1C)N1C(=O)c2ccccc2C1=O (stereo not drawn) | inactive: -8% |
| CCOc1ccc(C(=O)Nc2ccc(NC(=O)c3ccco3)c(Cl)c2)cc1Br | inconclusive |
| COc1ccc(-c2nc(CS(=O)CC(=O)N3CCc4ccccc4C3)c(C)o2)cc1 (stereo not drawn) | inconclusive |

| Compound | activation |
| --- | --- |
| COC(=O)C(C)Sc1nc2c(cnn2-c2ccc(C)cc2)c(=O)[nH]1 (stereo not drawn) | inconclusive |
| COc1cc2[nH]c3c(N4CCN(c5ccccn5)CC4)ncnc3c2cc1OC | inconclusive |
| CCC(=O)Nc1cc(C)c(NC(=O)C23CC4CC(CC(C4)C2)C3)cn1 | inconclusive |
| Cc1nn(-c2ccc(F)cc2)c2nc(N)c(C#N)c(-c3cccs3)c12 | inconclusive |
| CCc1ccccc1S(=O)(=O)Cc1ccc(C(=O)NCc2ccc3c(c2)OCO3)o1 | inconclusive |
| O=C(Nc1nc(-c2cccnc2)cs1)c1ccc(S(=O)(=O)N2CCOCC2)cc1 | inconclusive |
| Cc1cc(C)nc(N(C#N)Cc2ccccc2Cl)n1 | inconclusive |
| CC(C)(C)c1ccc(C(=O)CCCSC2=C(C#N)C(c3ccco3)C3=C(CCCC3=O)N2)cc1 (stereo not drawn) | inconclusive |
| COc1ccc(C2CC(c3ccc(Cl)cc3)n3nc(N)nc3N2)cc1 (stereo not drawn) | inactive: 0% |
| Cc1cccc(NC(=O)CS(=O)(=O)c2c[nH]c3ccccc23)c1C | inconclusive |
| Cc1ccc2oc(=O)c3cnn(CC(=O)NCCN(C)C)c3c2c1 | inconclusive |
| COc1ccc(N2CCC(CNC(=O)Nc3ccc(OC)cc3OC)C2)cc1 (stereo not drawn) | inconclusive |
| CCOC(=O)c1c(C)oc2c1c(C=NC1CCS(=O)(=O)C1)c(O)c1ccccc12 (stereo not drawn) | inconclusive |
| O=c1c2c(nc3cc(-c4ccccc4)[nH]n13)CCC2 | inconclusive |
| COc1ccc(OC)c(C2C(C(=O)O)c3ccccc3C(=O)N2C)c1 (stereo not drawn) | inconclusive |
| COc1cc(N2CCOCC2)ncn1 | inconclusive |
| COC(=O)c1ccc(C2CC(=O)NC3=C2C(=O)CCC3)cc1 (stereo not drawn) | inconclusive |
| Fc1cc(Br)ccc1Nc1nc2ccccc2n2nnnc12 | inconclusive |
| Cc1oc(-c2cccs2)nc1CS(=O)CC(=O)NCCCN1CC(C)CC(C)C1 (stereo not drawn) | inconclusive |
| O=C(NCC(c1cccnc1)N1CCN(c2ccccc2)CC1)C1CCCCC1 (stereo not drawn) | inactive: -6% |
| CCOC(=O)c1c(C)[nH]c(C(=O)Cn2c(=O)c3c(ncn3CC)n(Cc3ccccc3)c2=O)c1C | inactive: 1% |

| Compound | activation |
| --- | --- |
| N#CC1=C(N)SC(N)=C(C#N)C1c1ccc(C(F)(F)F)cc1 | inactive: 12.5% |
| Cc1ccc(-c2noc(CN(C(=O)C34CC5CC(CC(C5)C3)C4)C(C)C)n2)cc1 | inconclusive |
| COc1ccccc1CNC(=O)C1CC(=O)N(C2CCCC2)C1 (stereo not drawn) | inactive: -3% |
| Cc1nc2sc(C(c3ccc(Cl)cc3)N3CCN(C(=O)c4ccco4)CC3)c(O)n2n1 (stereo not drawn) | inconclusive |
| CCOC(=O)c1ccccc1NC(=O)CCNC(=O)Cn1cnc2ccccc2c1=O | inconclusive |
| Cc1ccc2[nH]c(=S)cc(C)c2c1 | inconclusive |
| CCOc1nc(SCCOc2ccccc2)nc(N(C)C)n1 | inactive: -7.5% |
| CSC1=NCCN1C(=O)Cc1cccs1 | inactive: 2% |
| CCOC(=O)c1[nH]c(C)c(C(=O)NCc2ccc(Cl)cc2)c1C | inconclusive |
| Cc1sc(NC(=O)CSc2nnc(COc3ccccc3)n2C)c(C#N)c1C | inconclusive |
| Cc1ccc(C)c(N2CCN(C(=O)CCCOc3cc(=O)n(C)c4ccccc34)CC2)c1 | inconclusive |
| Cn1c(=O)c2c(ncn2CC(O)CNc2ccc(Cl)cc2)n(C)c1=O (stereo not drawn) | inconclusive |
| COc1ccc2cc3cc(C(=O)NCc4ccc5c(c4)OCO5)oc3nc2c1 | inconclusive |
| CC(=O)NC(CCS(C)(=O)=O)C(=O)Nc1nc(C)cs1 (stereo not drawn) | inconclusive |
| COc1ccc(S(=O)(=O)N2CCCN(CC(=O)Nc3ccc4c(c3)OCO4)CC2)cc1 | inconclusive |
| COc1ccc(C(C(=O)OC(C)CN(C)C)c2ccccc2)cc1 (stereo not drawn) | inconclusive |
| CCC(=O)Nc1cc2nn(-c3ccccc3)nc2cc1Cl | inactive: 4% |
| O=C(NCCN1CCCC1)C1(S(=O)(=O)c2ccc(Cl)cc2)CC1 | inconclusive |
| O=C(O)C1CCC(=O)N1Cc1ccccc1Cl (stereo not drawn) | inactive: -3% |
| CCCCCSc1nnc(C)c(=O)[nH]1 | inconclusive |
| CC1CCCN(C(=O)c2ccc3c(c2)C(=O)N(CCC2=CCCCC2)C3=O)C1 (stereo not drawn) | inactive: 0% |

Random excerpt: 4 compounds from above

| Compound | activation |
| --- | --- |
| CCOc1nc(SCCOc2ccccc2)nc(N(C)C)n1 | inactive: -7.5% |
| Cc1ccc2[nH]c(=S)cc(C)c2c1 | inconclusive |
| CCOC(=O)c1[nH]c(C)c(C(=O)NCc2ccc(Cl)cc2)c1C | inconclusive |
| CCC(=O)Nc1cc2nn(-c3ccccc3)nc2cc1Cl | inactive: 4% |
